Assay results as given in PMC4600982.
Results are given in words; binding and its absence hold for the method and conditions named. In cells and extracts the contact can be indirect. Some results given as binding are weak or reduced against the parent protein; the word gives no strength.

Protein sequences, listed by entry. Tags and fused reporters are not part of them.
UniProt P02795: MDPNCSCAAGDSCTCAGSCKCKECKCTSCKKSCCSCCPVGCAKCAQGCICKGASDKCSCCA

Biological target: GFP-tagged metallothionein 2A (MT2A), pEGFP-MT2A (UniProt P02795)
Assay: co-IP; HEK293 cells transfected with pEGFP or pEGFP-MT2A for 48 h; lysis in 150 mM NaCl, 20 mM Tris-HCl pH 7.5, 1% Triton X-100; specific antibodies or normal IgG, protein A/G beads overnight at 4 C; western blot

B1: Homeobox containing 1 (HMBOX1) in HEK293 cells (protein, UniProt Q6NT76 1-420)
chain: MLSSFPVVLLETMSHYTDEPRFTIEQIDLLQRLRRTGMTKHEILHALETLDRLDQEHSDKFGRRSSYGGSSYGNSTNNVPASSSTATASTQTQHSGMSPSPSNSYDTSPQPCTTNQNGRENNERLSTSNGKMSPTRYHANSMGQRSYSFEASEEDLDVDDKVEELMRRDSSVIKEEIKAFLANRRISQAVVAQVTGISQSRISHWLLQQGSDLSEQKKRAFYRWYQLEKTNPGATLSMRPAPIPIEDPEWRQTPPPVSATSGTFRLRRGSRFTWRKECLAVMESYFNENQYPDEAKREEIANACNAVIQKPGKKLSDLERVTSLKVYNWFANRRKEIKRRANIEAAILESHGIDVQSPGGHSNSDDVDGNDYSEQDDSTSHSDHQDPISLAVEMAAVNHTILALARQGANEIKTEALDDD
In the case of B1, the binding is reported as “binds”.
